Results as given in publication PMC3807682.

By UniProt entry, the sequences of proteins in these tests, tags left out. Where a name states a change or a piece, a line headed by the entry shows the natural chain unless it says otherwise.
UniProt P40791: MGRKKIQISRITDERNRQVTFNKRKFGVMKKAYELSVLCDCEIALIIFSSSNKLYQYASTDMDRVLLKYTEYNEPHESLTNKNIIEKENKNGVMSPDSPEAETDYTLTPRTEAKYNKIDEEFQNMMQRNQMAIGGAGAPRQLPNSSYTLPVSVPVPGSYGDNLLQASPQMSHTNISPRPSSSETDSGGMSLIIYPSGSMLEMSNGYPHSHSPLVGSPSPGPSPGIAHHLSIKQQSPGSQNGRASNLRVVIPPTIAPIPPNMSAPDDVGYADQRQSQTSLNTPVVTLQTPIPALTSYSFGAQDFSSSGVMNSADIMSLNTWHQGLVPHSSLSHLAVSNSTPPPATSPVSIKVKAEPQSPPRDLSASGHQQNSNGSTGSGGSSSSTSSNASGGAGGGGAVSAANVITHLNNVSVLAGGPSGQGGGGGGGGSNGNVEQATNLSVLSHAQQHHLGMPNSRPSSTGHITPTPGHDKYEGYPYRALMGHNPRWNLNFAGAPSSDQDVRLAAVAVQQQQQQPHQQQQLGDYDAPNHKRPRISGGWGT

Columns and labels:
[1] = molecular target: HA-tagged nonphosphorylatable MEF2 (T20A), inducibly expressed in the fly fat body (Drosophila) (UniProt P40791); assay: co-IP; fat-body-expressed MEF2*.HA precipitated with anti-HA (16B12) from whole-fly lysates, blot for endogenous TBP; flies 3 hr after mixed E. coli and M. luteus infection
[2] = molecular target: HA-tagged phosphomimetic MEF2 (T20E), inducibly expressed in the fly fat body (Drosophila) (UniProt P40791); assay: as above
[3] = molecular target: HA-tagged nonphosphorylatable MEF2 (T20A), inducibly expressed in the fly fat body (Drosophila) (UniProt P40791); assay: co-IP; fat-body-expressed MEF2*.HA precipitated with anti-HA (16B12) from whole-fly lysates, blot for endogenous TBP; uninfected flies
[4] = molecular target: HA-tagged phosphomimetic MEF2 (T20E), inducibly expressed in the fly fat body (Drosophila) (UniProt P40791); assay: as above

B1: TATA binding protein (TBP), endogenous Drosophila (protein, UniProt P20227 1-353)
chain: MDQMLSPNFSIPSIGTPLHQMEADQQIVANPVYHPPAVSQPDSLMPAPGSSSVQHQQQQQQSDASGGSGLFGHEPSLPLAHKQMQSYQPSASYQQQQQQQQLQSQAPGGGGSTPQSMMQPQTPQSMMAHMMPMSERSVGGSGAGGGGDALSNIHQTMGPSTPMTPATPGSADPGIVPQLQNIVSTVNLCCKLDLKKIALHARNAEYNPKRFAAVIMRIREPRTTALIFSSGKMVCTGAKSEDDSRLAARKYARIIQKLGFPAKFLDFKIQNMVGSCDVKFPIRLEGLVLTHCNFSSYEPELFPGLIYRMVRPRIVLLIFVSGKVVLTGAKVRQEIYDAFDKIFPILKKFKKQS
Question: Which binding [1] does the source give for B1 here?
Answer: Its binding is “binds”.

Question: And the binding [2]?
Answer: The binding was “no binding”.

Question: And the binding [3]?
Answer: Its binding is “binds”.

Question: And the binding [4]?
Answer: The binding was “no binding”.

No constants are given. Whether binding was seen depends on the method and setting. Binding seen in cells or lysates may run through a third protein. For some of these results: Binding calls can cover weak binding; strength is not graded here.
